Test [1] has as its target T1, hLAMP-1^406-417 (human) (UniProt P11279).
T1 sequence: GRKRSHAGYQTI
Put plainly: two-hybrid; Y2HGold yeast; cargo tails in pGBKT7 against AP-3 or AP-1 subunits; growth on −His (+2 or 10 mM 3AT) plates, 3–5 days at 30°C.

Sequences of proteins named here, by UniProt entry; tags and fusion partners are left off. A change or cut given only in a name is not applied to a line headed by its entry.
UniProt P11279: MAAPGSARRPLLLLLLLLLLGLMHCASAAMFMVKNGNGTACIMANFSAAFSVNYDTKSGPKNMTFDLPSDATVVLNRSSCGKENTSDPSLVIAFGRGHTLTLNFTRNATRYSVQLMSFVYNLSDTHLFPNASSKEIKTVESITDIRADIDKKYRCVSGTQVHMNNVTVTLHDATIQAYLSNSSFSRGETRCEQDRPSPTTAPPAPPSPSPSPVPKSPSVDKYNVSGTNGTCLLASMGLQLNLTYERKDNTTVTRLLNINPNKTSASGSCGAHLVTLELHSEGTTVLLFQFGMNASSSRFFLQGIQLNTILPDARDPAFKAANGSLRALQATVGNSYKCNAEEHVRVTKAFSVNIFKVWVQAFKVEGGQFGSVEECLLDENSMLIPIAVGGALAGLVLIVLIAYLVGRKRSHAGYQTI

The target of test [2] is T2, hPMEL^623-668 (human) (UniProt P40967).
T2 sequence: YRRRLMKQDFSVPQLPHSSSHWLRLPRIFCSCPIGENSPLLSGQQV
Described as above.

Test [3] concerns the target T3, GFP–rabenosyn-5 (UniProt Q9H1K0).
T3 sequence: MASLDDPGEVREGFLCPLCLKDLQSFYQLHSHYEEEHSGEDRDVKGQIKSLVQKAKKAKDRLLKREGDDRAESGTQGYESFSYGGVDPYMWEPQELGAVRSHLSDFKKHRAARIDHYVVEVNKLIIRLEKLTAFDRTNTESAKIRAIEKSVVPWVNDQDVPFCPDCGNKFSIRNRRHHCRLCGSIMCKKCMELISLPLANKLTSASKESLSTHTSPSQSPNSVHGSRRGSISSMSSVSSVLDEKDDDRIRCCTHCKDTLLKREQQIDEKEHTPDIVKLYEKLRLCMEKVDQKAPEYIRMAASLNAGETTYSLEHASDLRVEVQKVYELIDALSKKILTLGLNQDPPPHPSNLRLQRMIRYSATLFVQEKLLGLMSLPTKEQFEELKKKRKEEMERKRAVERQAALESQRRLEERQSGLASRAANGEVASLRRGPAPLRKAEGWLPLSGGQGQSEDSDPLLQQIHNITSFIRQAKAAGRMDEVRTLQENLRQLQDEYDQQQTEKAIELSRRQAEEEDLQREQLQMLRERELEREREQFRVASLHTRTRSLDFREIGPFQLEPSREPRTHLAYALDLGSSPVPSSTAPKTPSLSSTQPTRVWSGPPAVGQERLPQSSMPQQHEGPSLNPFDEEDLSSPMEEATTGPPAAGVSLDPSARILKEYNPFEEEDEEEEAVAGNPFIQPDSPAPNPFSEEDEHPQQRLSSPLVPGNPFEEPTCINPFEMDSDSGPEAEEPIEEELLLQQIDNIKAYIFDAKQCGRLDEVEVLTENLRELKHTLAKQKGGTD
Put plainly: co-IP; GFP-tagged bait expressed in HeLa cells, lysate (20 mM HEPES pH7.4, 100 mM KCl, 10 mM MgCl2, 5 mM EDTA, 1% Triton X-100, 100 µM GTPγS) on GFP-Trap_A beads 4–5 h at 4°C; immunoblotting of endogenous partners. (A western blot detects proteins with antibodies after separation by electrophoresis.)

Test [4] has as its target T4, Rab4 (endogenous, melanocytes) (mouse (endogenous in melan-Ink melanocytes)) (UniProt P56371).
T4 sequence: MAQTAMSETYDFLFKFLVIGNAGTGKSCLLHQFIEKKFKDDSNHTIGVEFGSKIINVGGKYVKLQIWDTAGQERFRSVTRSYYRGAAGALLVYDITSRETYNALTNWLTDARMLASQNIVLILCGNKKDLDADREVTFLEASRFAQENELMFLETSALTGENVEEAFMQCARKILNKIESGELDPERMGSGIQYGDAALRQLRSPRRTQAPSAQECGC
Put plainly: co-IP; endogenous Rab4 from melan-Ink melanocyte lysate, anti-Rab4 antibody and Protein G–Sepharose 4B beads overnight at 4°C; immunoblotting.

Consider 7 substances from publication PMC6151265.

No constants are given. Whether binding was seen depends on the method and setting. For part of these data: A result given as binding can be weak or reduced; the word gives no strength. For part of these data: Binding seen in cells or lysates may run through a third protein. For part of these data: Sequences can lack the tags named with a protein.

With AP-1 µ1 subunit (yeast two-hybrid), the figures for the binding entry in test [1] and in test [2] were “binds” and “no binding”, respectively.

As for AP-1 γ subunit (yeast two-hybrid), in test [2], the binding entry is on record as “no binding”.

In the case of AP-1 σ1 subunit (yeast two-hybrid), the binding result in test [2] is “no binding”.

On to “AP-3 (endogenous, HeLa) (human (endogenous in HeLa)) (complex)”, for which the binding result in test [3] is listed as “binds”.

Turning to “AP-3 (endogenous, melanocytes) (mouse (endogenous in melanocytes)) (complex)”, in test [4], the binding result was “binds”.

For the substance AP-3 µ3 subunit (yeast two-hybrid), the binding entry is “binds” in test [1] and “no binding” in test [2].

AP-3 σ3 subunit (yeast two-hybrid): the binding entry in test [2] is on record as “no binding”.
